The results in this text go back to PMC7862700.

The list shows a part of the results, in another mix than the full data. At the low end of the ranking the order means little.

The test addresses T1, ELF3 (UniProt P78545).
T1 sequence: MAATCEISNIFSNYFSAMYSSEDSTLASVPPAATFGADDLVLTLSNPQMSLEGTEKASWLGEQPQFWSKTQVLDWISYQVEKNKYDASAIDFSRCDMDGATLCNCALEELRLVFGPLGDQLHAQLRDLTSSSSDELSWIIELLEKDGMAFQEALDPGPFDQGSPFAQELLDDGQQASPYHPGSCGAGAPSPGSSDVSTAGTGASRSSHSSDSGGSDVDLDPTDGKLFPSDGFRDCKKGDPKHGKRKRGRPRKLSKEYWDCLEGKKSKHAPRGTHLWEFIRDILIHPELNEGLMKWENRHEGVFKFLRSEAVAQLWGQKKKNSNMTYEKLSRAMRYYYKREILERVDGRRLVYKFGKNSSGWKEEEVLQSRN
Nature of the test: DAPPL (digital affinity profiling via proximity ligation, sequencing). The note with it: 10 mM Tris-HCl pH 7.5, 50 mM NaCl, 1 mM DTT, 4% glycerol, room temperature, 30 min; GST-TFs on glutathione beads, 16-mer random dsDNA library, 0.1% …; high values mean tight binding; double strand, one strand shown; scale: fold enrichment (6-mer frequency, TF over GST control).
With TGCGCA, the binding signal is 1.06. The sequence TGGCGA had a binding signal of 0.892. The result for TAACTA reads 1.33; that for TCACTC, 1.26. The result for CAGGAA reads 1.86; that for ATTTGC, 1.33; that for GGATGT, 1.61. In turn, ATAAAG had a binding signal of 1.02. To AATCTA belongs 1.04; to ACGACC, 1.25. TATTGC registered a binding signal of 1.2. On to CCGCTT, for which the binding signal came out at 2.08. Sequence GGCATT showed a binding signal of 0.94. Sequence TACATA displayed a binding signal of 1.18. To CGCTGC belongs 1.03.

As for ACACTC, the binding signal came out at 0.973. In the case of TTCTAA, the binding signal was 1.04. Sequence TTAGGT had a binding signal of 1.15. CTGTTC gave a binding signal of 1.63. To GTATGG belongs 1.04; to AGGGAA, 1.01; to ATTAGT, 0.982. In turn, TGGTCC came in with a binding signal of 0.93. To TGGGAT belongs 1.12; to TCCTGA, 1.39; to ACTATC, 1.22. GTGCAT returned a binding signal of 1.03. In the case of TCGAGC, the binding signal was 1.

Turning to TATCCC, the binding signal came out at 1.83. The result for AGCTTA reads 1.23; that for ACCTAT, 1.24; that for GATTAA, 0.958. In turn, TCAGTT displayed a binding signal of 0.99.

On to GTCCTT, for which the binding signal was 1.16. With TGGCCC, the binding signal is 0.949. The result for TCTCTC reads 1.39; that for AGTGCC, 0.939; that for GCTGCC, 0.936. In turn, TTGGCA returned a binding signal of 1.07.
